In patent publication US7157457B2, “Compounds useful in the treatment of inflammatory diseases” (Glaxo Group Limited, priority 2000, dated 2007):
Some results were stated once for a whole list of compounds, not compound by compound.

What follows are molecules tested against T1, CCR-3 (Homo sapiens, UniProt P51677) (assay: CCR-3 competition binding SPA ([125I]eotaxin)). Conditions: inhibition of [125I]eotaxin binding to membranes of K562 cells stably expressing CCR-3; mean of at least two experiments.
T1 sequence (P51677 1-355): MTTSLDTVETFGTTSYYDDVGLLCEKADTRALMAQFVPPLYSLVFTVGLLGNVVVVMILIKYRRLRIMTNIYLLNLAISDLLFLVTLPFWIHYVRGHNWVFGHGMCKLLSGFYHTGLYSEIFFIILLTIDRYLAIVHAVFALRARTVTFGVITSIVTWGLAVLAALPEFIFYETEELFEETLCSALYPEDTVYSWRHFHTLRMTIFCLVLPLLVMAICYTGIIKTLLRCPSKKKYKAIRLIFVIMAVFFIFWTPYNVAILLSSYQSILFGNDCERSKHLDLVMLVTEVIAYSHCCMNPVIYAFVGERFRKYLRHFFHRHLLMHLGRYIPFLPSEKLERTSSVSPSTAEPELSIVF
Design: expressed in transfected cells

CCR-3 Binding Assay (pIC50), greater than 5.0:
NS(=O)(=O)c1ccc(CNC(=O)NCC2CN(Cc3ccc(Cl)c(Cl)c3)CCO2)cc1 (stereo not drawn) [Example 61, 4-({[({[4-(3,4-dichlorobenzyl)morpholin-2-yl]methyl}amino)carbonyl]amino}methyl)benzenesulfonamide]
C#CCNC(=O)NC[C@@H]1CN(Cc2ccc(Cl)c(Cl)c2)CCO1 [Example 58, N-{[(2R)-4-(3,4-Dichlorobenzyl)morpholin-2-yl]methyl}-N′-prop-2-ynylurea]
O=C(NCc1ccc(S(=O)(=O)Nc2nccs2)cc1)NCC1CN(Cc2ccc(Cl)c(Cl)c2)CCO1 (stereo not drawn) [Example 106, 4-({[({[4-(3,4-dichlorobenzyl)morpholin-2-yl]methyl}amino)carbonyl]amino}methyl)-N-(1,3-thiazol-2-yl)benzenesulfonamide]
CN(C)Cc1ccc(CNC(=O)NCC2CN(Cc3ccc(Cl)c(Cl)c3)CCO2)o1 (stereo not drawn) [Example 107, N-{[4-(3,4-dichlorobenzyl)morpholin-2-yl]methyl}-N′-({5-[(dimethylamino)methyl]-2-furyl}methyl)urea]
O=C(NCc1cccnc1)NCC1CN(Cc2ccc(Cl)c(Cl)c2)CCO1 (stereo not drawn) [Example 67, N-{[4-(3,4-dichlorobenzyl)morpholin-2-yl]methyl}-N′-(pyridin-3-ylmethyl)urea]
O=C(NCc1cnccn1)NCC1CN(Cc2ccc(Cl)c(Cl)c2)CCO1 (stereo not drawn) [Example 112, N-{[4-(3,4-dichlorobenzyl)morpholin-2-yl]methyl}-N′-(pyrazin-2-ylmethyl)urea]
COc1ccc(CCNC(=O)NCC2CN(Cc3ccc(Cl)c(Cl)c3)CCO2)cc1 (stereo not drawn) [Example 91, N-{[4-(3,4-dichlorobenzyl)morpholin-2-yl]methyl}-N′-[2-(4-methoxyphenyl)ethyl]urea]
Cn1nnc(CNC(=O)NCC2CN(Cc3ccc(Cl)c(Cl)c3)CCO2)n1 (stereo not drawn) [Example 120, N-{[4-(3,4-dichlorobenzyl)morpholin-2-yl]methyl}-N′-[(2-methyl-2H-tetraazol-5-yl)methyl]urea]
O=C(NCc1ccc(F)c(F)c1)NCC1CN(Cc2ccc(Cl)c(Cl)c2)CCO1 (stereo not drawn) [Example 76, N-{[4-(3,4-dichlorobenzyl)morpholin-2-yl]methyl}-N′-(3,4-difluorobenzyl)urea]
COc1ccc(CNC(=O)NC[C@H]2CN(Cc3ccc(Cl)c(Cl)c3)CCO2)cc1 [Example 63, N-{[(2S)-4-(3,4-dichlorobenzyl)morpholin-2-yl]methyl}-N′-(4-methoxybenzyl)urea]
C#CCNC(=O)NC[C@H]1CN(Cc2cccc(Cl)c2)CCO1 [Example 127, N-{[(2S)-4-(3-chlorobenzyl)morpholin-2-yl]methyl}-N′-prop-2-ynylurea]
O=C(NCC1CN(C(=O)c2ccc(Cl)c(Cl)c2)CCO1)Nc1ccc(Cl)cc1 (stereo not drawn) [Example 42, N-(4-Chlorophenyl)-N′-{[4-(3,4-dichlorobenzoyl)morpholin-2-yl]methyl}urea]
O=C(NCC1CCN(C(=O)C2CC2)CC1)NC[C@H]1CN(Cc2ccc(Cl)c(Cl)c2)CCO1 [Example 182, N-{[1-(Cyclopropylcarbonyl)piperidin-4-yl]methyl}-N′-{[(2S)-4-(3,4-dichlorobenzyl)morpholin-2-yl]methyl}urea]
O=C(NCc1cccc(OC(F)(F)F)c1)NCC1CN(Cc2ccc(Cl)c(Cl)c2)CCO1 (stereo not drawn) [Example 69, N-{[4-(3,4-dichlorobenzyl)morpholin-2-yl]methyl}-N′-[3-(trifluoromethoxy)benzyl]urea]
Cc1nc(CNC(=O)NCC2CN(Cc3ccc(Cl)c(Cl)c3)CCO2)cs1 (stereo not drawn) [Example 114, N-{[4-(3,4-dichlorobenzyl)morpholin-2-yl]methyl}-N′-[(2-methyl-1,3-thiazol-4-yl)methyl]urea]
